Data published in publication PMC7766365.

By UniProt entry, the sequences of proteins in these tests, tags left out.
UniProt P0DTC4: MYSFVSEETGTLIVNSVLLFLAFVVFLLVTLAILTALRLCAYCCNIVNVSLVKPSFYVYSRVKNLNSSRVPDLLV
UniProt O00203: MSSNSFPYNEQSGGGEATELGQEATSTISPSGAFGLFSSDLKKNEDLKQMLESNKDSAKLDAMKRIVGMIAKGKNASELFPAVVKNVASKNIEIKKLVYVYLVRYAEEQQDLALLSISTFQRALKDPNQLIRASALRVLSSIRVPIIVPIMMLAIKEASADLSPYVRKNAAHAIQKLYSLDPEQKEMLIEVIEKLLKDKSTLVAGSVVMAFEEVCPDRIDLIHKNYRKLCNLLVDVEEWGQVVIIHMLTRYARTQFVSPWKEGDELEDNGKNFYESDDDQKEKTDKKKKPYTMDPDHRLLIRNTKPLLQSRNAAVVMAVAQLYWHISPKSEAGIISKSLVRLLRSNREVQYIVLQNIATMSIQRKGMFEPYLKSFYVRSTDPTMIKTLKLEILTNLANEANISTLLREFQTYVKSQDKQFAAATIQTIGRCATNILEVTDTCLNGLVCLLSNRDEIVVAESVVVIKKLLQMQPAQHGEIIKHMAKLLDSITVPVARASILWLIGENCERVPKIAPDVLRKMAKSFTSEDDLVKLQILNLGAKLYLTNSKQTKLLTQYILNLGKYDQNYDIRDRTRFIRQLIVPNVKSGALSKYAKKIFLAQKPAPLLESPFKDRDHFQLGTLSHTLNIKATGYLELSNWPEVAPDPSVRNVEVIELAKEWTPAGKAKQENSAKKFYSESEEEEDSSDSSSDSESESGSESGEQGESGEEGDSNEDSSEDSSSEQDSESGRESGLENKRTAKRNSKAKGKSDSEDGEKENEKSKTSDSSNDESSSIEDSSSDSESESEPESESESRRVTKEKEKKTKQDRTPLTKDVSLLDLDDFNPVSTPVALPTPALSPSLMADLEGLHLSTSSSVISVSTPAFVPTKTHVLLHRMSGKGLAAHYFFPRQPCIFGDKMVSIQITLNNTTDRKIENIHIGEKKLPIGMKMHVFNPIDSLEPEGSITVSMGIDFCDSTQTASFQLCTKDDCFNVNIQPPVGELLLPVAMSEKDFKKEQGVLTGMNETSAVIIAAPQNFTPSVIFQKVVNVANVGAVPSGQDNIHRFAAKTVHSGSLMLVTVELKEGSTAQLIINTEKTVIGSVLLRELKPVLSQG

Biological target: SARS-CoV-2 E (SARS-CoV-2) (UniProt P0DTC4)
Assay: affinity purification with mass spectrometry

In the case of AP3B1 (from UniProt O00203 1-1094), the binding is reported as “binds”.

These are yes or no findings as the source states them, for the method shown. In cells and extracts the contact can be indirect. A yes stands for co-enrichment or nearness to the bait. Other partners may have been found.
